Results published in article PMC12558843.
No constants are given. Whether binding was seen depends on the method and setting. Binding seen in cells or lysates may run through a third protein. Some results given as binding are weak or reduced against the parent protein; the word gives no strength.

Protein sequences, listed by entry. Tags and fused reporters are not part of them.
UniProt P09429: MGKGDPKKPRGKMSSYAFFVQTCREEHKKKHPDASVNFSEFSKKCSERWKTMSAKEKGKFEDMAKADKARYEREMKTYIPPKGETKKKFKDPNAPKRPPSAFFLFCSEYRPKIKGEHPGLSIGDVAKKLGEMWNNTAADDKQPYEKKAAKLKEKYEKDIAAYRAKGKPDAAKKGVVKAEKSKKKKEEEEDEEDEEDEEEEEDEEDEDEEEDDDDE
UniProt Q14457: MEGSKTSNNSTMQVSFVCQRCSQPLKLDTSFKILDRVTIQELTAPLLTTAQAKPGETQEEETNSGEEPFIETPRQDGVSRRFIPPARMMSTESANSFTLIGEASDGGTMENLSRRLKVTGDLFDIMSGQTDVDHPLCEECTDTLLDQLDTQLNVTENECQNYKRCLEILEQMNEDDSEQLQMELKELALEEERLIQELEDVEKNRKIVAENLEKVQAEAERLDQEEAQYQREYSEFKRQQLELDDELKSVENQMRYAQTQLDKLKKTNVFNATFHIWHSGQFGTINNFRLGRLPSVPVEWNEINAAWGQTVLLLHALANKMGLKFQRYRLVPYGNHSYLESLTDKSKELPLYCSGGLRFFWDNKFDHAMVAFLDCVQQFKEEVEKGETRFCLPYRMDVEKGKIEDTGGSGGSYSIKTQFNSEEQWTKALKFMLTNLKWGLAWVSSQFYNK

Key:
[1] = target: High mobility group box 1 (HMGB1) (human (endogenous in HCT116 and HT29 CRC cells)) (UniProt P09429); experiment: proximity ligation; Duolink in situ PLA on fixed, permeabilised CRC cells with anti-rabbit PLUS and anti-mouse MINUS probes, confocal microscopy; cells with or without 4 Gy X-ray irradiation
[2] = target: High mobility group box 1 (HMGB1) (human (endogenous in HCT116 and HT29 CRC cells)) (UniProt P09429); experiment: co-IP; Co-IP kit (Absin abs955); CRC cell lysate incubated with mouse anti-HMGB1 antibody or mouse IgG overnight at 4°C, protein A + G agarose beads, blot for BECN1; cells with or without irradiation

Q: For “Beclin 1 (BECN1) (from UniProt Q14457 1-450)”, which binding [1] is on record?
A: binds

Q: What about the binding [2] of the same substance?
A: binds
